Measured values reported in publication PMC10775674.

Amino acid sequences for entries named in this document (tags omitted).
UniProt P08670: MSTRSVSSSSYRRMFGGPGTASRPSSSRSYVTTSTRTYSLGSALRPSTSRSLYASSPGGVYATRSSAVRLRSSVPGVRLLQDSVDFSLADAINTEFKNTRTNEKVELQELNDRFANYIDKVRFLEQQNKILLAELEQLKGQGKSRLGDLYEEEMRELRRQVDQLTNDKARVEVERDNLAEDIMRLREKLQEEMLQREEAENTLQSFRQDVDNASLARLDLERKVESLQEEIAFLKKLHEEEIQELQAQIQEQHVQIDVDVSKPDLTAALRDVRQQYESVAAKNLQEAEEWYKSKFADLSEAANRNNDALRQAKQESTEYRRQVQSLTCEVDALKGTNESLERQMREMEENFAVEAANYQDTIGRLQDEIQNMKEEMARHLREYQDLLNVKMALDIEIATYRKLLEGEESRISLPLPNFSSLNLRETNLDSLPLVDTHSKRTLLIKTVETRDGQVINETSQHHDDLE

Biological target: T1, HA-NEURL3 (neuralized E3 ubiquitin protein ligase 3, HA-tagged) (UniProt Q96EH8)
T1 sequence: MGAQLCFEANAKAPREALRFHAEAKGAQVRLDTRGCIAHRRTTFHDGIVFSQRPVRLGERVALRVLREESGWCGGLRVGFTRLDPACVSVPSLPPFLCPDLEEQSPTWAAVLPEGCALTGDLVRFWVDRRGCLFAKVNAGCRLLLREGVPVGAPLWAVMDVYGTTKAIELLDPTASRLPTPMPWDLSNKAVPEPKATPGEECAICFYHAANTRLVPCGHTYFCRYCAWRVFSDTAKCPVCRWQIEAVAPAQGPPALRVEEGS
Assay: affinity purification with mass spectrometry; HA immunoprecipitates from SUNE1 cells transfected with HA-NEURL3 plasmid; SDS-PAGE, silver staining, differential bands analysed by mass spectrometry

**Q.** “endogenous Vimentin (from UniProt P08670 1-466)” was tested. Which binding did it give?
**A.** binds

No constants are given. Whether binding was seen depends on the method and setting. In cells and extracts the contact can be indirect. Here binding means that the protein was enriched with, or labelled near, the bait; the list need not be complete. Where a sequence is shown, tags or fusion partners need not be part of it.
